Measurements from PMC9694926, “Novel Uracil-Based Inhibitors of Acetylcholinesterase with Potency for Treating Memory Impairment in an Animal Model of Alzheimer’s Disease” (Molecules, 2022).
Structures can show the parent of a compound that is named as a salt.

System: Aβ plaques in APP/PS1 mice entorhinal cortex
Experiment: Aβ plaques quantification by thioflavin S staining
Type: in vivo
Details: 1 mg/kg p.o., 18 days

COc1cc2c(cc1OC)C(=O)C(CC1CCN(Cc3ccccc3)CC1)C2 (centres unmarked) [Donepezil, donepezil hydrochloride]
effect on mean Aβ plaque number: did not significantly reduce | effect on mean area of plaques: did not significantly reduce
